1 compound from patent publication US20110003849A1, “SOLUBLE EPOXIDE HYDROLASE INHIBITORS, COMPOSITIONS CONTAINING SUCH COMPOUNDS AND METHODS OF TREATMENT” (priority 2008, published 2011) can be followed below.

The chains behind the UniProt entries cited, without tags or fusion partners.
UniProt P34913, whole entry: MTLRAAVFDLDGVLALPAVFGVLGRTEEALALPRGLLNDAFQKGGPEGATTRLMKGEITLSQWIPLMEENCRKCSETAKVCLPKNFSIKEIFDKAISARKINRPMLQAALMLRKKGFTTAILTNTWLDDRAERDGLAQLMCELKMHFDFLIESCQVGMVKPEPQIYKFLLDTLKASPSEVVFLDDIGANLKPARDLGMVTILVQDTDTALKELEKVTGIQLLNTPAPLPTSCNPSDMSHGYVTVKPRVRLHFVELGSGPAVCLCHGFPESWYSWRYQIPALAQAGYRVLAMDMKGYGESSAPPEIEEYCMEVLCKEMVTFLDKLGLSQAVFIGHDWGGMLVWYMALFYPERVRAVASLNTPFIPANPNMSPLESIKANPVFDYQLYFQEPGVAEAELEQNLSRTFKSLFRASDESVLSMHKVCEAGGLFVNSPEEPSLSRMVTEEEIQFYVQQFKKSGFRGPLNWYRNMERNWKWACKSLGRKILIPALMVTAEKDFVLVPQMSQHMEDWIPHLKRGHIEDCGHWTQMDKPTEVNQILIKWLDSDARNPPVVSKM

The structures given here were assigned with low confidence; some may be wrong.

This assay addresses human sEH enzyme (Homo sapiens, UniProt P34913). As to the kind of experiment: sEH Human Enzyme Assay (fluorescence based enzyme in vitro assay). The conditions noted are these: read-out: IC50 [nM] for human sEH enzyme inhibition; recombinant full length human sEH about 1 nM, fluorescence substrate S7 10 uM, pH7.0, 25° C. An excerpt:
Preparation of Recombinant sEH Human Enzyme
The DNA for expressing sEH was designed based on a […] sEH cDNA, modified to optimize for expression both in E. coli and insect cells. The designed DNA fragment encodes a protein sequence that is identical to full length human sEH, and the DNA was synthesized in vitro. The DNA was then subcloned into the pET100 vector that will generate a fusion protein with an N-terminal His-tag. The recombinant protein was expressed in E. coli. The sEH enzyme was affinity purified by a Ni^++ column. His-tag was removed by Enter Kinase (EK) digestion. The purified enzyme aliquots were frozen and held at −80° C. for later use.
Fluorescence Based Enzyme In Vitro Assay,
For each assay (100 ul), an aliquot of enzymes (about 1 nM final concentration) was incubated with a fluorescence substrate, S7 (10 uM final concentration), in sEH assay buffer (25 mM HEPES, pH7.0, 0.1 mg/ml BSA) in a 96-well plate. The kinetic reaction reading (Ex330/Em465) was conducted using a plate reader, Spectra max (Molecular Devices) at 25° C.

As for `Cn1cc(-c2noc(C3(C)CC4CCC3N(C(=O)Nc3ccc(C(F)(F)F)cc3)C4)n2)c2ccccc21` (stereo not shown), the IC50 – broadly, the concentration at which inhibition is half-maximal – turned out to be 2 nM.
